Results on 1 substance are retold here after paper PMC7719709.

Chains of the proteins cited; added tags and fusions are not shown.
UniProt Q99728: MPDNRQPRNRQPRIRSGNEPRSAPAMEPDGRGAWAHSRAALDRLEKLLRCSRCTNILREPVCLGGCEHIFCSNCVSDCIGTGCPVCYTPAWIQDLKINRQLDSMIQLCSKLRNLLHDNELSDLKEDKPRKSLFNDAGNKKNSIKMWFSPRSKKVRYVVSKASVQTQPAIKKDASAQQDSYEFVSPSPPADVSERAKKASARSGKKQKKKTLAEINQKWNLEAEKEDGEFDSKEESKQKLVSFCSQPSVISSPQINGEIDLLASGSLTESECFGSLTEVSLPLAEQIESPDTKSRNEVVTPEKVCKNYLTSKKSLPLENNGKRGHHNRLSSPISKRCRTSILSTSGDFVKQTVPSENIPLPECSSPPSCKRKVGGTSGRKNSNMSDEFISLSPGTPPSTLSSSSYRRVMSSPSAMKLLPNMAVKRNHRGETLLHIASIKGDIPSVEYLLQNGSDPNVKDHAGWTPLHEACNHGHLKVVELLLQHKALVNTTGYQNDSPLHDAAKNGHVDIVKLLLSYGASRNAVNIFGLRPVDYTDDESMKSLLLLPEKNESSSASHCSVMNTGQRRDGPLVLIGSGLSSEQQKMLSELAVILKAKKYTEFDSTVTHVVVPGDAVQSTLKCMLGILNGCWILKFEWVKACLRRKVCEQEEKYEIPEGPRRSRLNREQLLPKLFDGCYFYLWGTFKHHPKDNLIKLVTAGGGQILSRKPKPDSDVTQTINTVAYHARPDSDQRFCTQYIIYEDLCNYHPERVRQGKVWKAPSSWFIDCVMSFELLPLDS
UniProt P09874: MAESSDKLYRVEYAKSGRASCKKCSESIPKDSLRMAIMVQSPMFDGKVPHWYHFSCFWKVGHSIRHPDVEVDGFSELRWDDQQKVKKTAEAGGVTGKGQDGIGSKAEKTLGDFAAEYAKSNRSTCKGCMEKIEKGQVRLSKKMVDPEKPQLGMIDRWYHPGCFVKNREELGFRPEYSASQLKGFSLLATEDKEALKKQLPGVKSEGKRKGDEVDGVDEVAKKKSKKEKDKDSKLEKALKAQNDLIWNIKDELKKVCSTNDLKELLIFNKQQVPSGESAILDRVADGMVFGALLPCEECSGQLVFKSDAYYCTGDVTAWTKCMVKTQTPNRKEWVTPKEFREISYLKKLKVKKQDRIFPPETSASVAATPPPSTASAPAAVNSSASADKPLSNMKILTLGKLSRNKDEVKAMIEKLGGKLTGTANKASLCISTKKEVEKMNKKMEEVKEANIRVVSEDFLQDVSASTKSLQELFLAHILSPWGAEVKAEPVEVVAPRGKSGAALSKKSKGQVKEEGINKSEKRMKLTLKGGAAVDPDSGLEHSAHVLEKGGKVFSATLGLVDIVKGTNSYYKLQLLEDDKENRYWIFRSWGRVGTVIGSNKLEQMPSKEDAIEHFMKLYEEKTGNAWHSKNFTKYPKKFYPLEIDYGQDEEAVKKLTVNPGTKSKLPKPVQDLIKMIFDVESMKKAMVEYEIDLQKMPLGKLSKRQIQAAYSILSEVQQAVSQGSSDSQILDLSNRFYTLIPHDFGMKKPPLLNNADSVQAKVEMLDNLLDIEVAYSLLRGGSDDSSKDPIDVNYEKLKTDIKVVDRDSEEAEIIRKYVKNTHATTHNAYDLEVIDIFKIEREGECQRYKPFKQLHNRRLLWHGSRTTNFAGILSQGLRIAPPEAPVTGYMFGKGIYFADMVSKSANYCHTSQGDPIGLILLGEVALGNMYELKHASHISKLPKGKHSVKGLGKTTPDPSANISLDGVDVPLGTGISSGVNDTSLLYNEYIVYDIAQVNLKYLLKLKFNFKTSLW

Assay [1] concerns the target BARD1 tagged with a turboGFP (UniProt Q99728). Briefly: co-IP; anti-turboGFP immunoprecipitation from HEK293T cells transfected with BARD1–turboGFP; cells untreated or treated with MMS, UV or cisplatin for 3 h.
Another assay has as its target T1, FLAG-tagged HLTF (human) (UniProt Q14527).
T1 sequence: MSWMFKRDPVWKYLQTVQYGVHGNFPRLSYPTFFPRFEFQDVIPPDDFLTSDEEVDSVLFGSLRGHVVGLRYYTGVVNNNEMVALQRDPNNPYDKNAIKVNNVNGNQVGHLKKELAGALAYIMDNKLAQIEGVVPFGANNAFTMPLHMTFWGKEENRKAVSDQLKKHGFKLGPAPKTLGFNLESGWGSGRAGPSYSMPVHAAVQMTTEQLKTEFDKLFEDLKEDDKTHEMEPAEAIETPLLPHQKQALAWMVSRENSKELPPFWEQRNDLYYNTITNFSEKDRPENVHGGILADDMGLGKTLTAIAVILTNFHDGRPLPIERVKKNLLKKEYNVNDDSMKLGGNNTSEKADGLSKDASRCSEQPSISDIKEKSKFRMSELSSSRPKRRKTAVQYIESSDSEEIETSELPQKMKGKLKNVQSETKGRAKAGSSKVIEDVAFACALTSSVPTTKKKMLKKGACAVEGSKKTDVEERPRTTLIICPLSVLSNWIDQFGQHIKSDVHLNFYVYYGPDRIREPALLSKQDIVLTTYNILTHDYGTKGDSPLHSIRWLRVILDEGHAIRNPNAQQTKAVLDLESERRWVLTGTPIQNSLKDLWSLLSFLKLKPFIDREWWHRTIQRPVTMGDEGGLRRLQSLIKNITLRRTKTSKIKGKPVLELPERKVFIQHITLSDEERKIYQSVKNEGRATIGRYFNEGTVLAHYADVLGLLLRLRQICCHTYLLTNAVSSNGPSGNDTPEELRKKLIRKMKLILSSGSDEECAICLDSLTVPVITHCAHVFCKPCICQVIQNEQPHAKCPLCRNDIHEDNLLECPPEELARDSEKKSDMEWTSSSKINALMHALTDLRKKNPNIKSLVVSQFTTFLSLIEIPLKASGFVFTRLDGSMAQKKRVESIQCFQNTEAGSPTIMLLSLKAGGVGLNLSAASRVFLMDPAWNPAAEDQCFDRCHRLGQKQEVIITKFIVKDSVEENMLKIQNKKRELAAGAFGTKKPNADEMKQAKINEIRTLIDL
Kind of assay: co-IP; anti-FLAG immunoprecipitation from lysates of HEK293T cells transfected with FLAG–HLTF or its constructs (with BARD1–turboGFP co-transfected in Fig. 1c); immunoblotting; cells untreated or treated with 1.2 mM MMS, 60 J/m^2 UV or 5 μM cisplatin for 3 h. (In general: Immunoblotting shows a protein as a band on a membrane.)

No constants are given. Whether binding was seen depends on the method and setting. Binding seen in cells or lysates may run through a third protein. Some binding calls cover weakened binding; strength is not graded here. For some assays here: Sequences can lack the tags named with a protein.

For the substance “PARP1 (endogenous) (from UniProt P09874 1-1014)”, the binding entry (in assay [1]; with FLAG-tagged HLTF (human)) was “binds” each time.
